Assay results from paper doi:10.1101/332015 (bioRxiv, 2018).
Results are given in words; binding and its absence hold for the method and conditions named. Values belong to the binder of their own block, whether it stands above or below them.

What was measured:
ARC_(170-396) [1] = molecular target: T1, ARC_(170-396) (human, UniProt Q7LC44 170-396); experiment: SEC-MALS
T1 sequence (looked up): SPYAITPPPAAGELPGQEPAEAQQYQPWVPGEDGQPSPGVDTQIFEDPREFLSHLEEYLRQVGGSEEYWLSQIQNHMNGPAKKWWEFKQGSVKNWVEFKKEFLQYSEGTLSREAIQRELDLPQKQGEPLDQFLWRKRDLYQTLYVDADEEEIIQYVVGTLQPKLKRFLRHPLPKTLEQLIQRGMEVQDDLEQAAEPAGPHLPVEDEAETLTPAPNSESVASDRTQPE

ARC_(170-396) [2] = molecular target: T1, ARC_(170-396); experiment: SEC-SAXS
ARC_(206-396) [3] = molecular target: T2, ARC_(206-396) (human, UniProt Q7LC44 206-396); experiment: SEC-MALS
T2 sequence (looked up): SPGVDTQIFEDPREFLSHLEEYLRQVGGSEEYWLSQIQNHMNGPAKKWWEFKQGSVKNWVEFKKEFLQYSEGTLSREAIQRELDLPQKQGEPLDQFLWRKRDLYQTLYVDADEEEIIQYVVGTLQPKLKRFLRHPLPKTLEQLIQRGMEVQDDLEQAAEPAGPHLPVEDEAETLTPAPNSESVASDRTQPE

ARC_(206-396) [4] = molecular target: T2, ARC_(206-396); experiment: SEC-SAXS
ARC_(206-361) [5] = molecular target: T3, ARC_(206-361) (human, UniProt Q7LC44 206-361); experiment: SEC-MALS
T3 sequence (looked up): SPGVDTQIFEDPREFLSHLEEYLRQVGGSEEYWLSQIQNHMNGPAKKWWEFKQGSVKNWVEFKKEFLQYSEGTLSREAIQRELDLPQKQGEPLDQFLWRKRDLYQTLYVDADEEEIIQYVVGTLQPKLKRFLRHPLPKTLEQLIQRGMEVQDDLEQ

ARC_(206-361) [6] = molecular target: T3, ARC_(206-361); experiment: SEC-SAXS
ARC_(207-277) [7] = molecular target: T4, ARC_(207-277) (human, UniProt Q7LC44 207-277); experiment: SEC-MALS
T4 sequence (looked up): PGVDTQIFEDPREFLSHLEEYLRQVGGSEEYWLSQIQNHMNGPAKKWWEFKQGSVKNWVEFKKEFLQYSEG

ARC_(207-277) [8] = molecular target: T4, ARC_(207-277); experiment: SEC-SAXS
ARC_(131-396) [9] = molecular target: T5, ARC_(131-396) (human, UniProt Q7LC44 131-396); experiment: SEC-MALS
T5 sequence (looked up): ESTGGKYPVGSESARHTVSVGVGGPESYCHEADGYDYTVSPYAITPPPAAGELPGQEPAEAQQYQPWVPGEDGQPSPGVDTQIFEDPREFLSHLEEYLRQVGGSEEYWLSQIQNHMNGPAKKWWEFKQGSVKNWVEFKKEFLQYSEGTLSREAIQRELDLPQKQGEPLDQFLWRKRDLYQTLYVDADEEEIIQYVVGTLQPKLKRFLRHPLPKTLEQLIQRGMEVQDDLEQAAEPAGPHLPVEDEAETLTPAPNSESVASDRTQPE

ARC_(131-396) [10] = molecular target: T5, ARC_(131-396); experiment: SEC-SAXS
ARC_(277-370) (human) [11] = molecular target: ARC_(277-370) (human) (UniProt Q7LC44); experiment: SEC-MALS
ARC_(277-370) (human) [12] = molecular target: ARC_(277-370) (human) (UniProt Q7LC44); experiment: SEC-SAXS

B1: ARC_(170-396) (domain or fragment, UniProt Q7LC44 170-396)
chain: T1 sequence (looked up)
binding (ARC_(170-396) [1]): no binding
binding (ARC_(170-396) [2]): no binding

B2: ARC_(206-396) (domain or fragment, UniProt Q7LC44 206-396)
chain: T2 sequence (looked up)
binding (ARC_(206-396) [3]): no binding
binding (ARC_(206-396) [4]): no binding

B4: ARC_(207-277) (domain or fragment, UniProt Q7LC44 207-277)
chain: T4 sequence (looked up)
binding (ARC_(207-277) [7]): no binding
binding (ARC_(207-277) [8]): no binding

Other lines, results leading:

binding (ARC_(206-361) [5]): no binding
binding (ARC_(206-361) [6]): no binding
B3: ARC_(206-361) (domain or fragment, UniProt Q7LC44 206-361)
chain: T3 sequence (looked up)

binding (ARC_(131-396) [9]): no binding
binding (ARC_(131-396) [10]): no binding
B5: ARC_(131-396) (domain or fragment, UniProt Q7LC44 131-396)
chain: T5 sequence (looked up)

binding (ARC_(277-370) (human) [11]): no binding
binding (ARC_(277-370) (human) [12]): no binding
B6: ARC_(277-370) (domain or fragment, UniProt Q7LC44 277-370)
chain: GTLSREAIQRELDLPQKQGEPLDQFLWRKRDLYQTLYVDADEEEIIQYVVGTLQPKLKRFLRHPLPKTLEQLIQRGMEVQDDLEQAAEPAGPHL
